Measurements published in PubChem BioAssay AID1487 (National Center for Advancing Translational Sciences (NCATS), 2009).
The list shows a part of the results. The main result of the screen is listed elsewhere. These columns were measured beside it and carry no call. Most of these compounds were active or inconclusive in the main read-out, so they are no random draw. Words in brackets tell the shape of the fitted curve; partial curves, single points and poor fits give uncertain potencies.

Test: qHTS Assay for Modulators of Lamin A Splicing
Settings: HeLa LMNA splicing GFP/RFP minigene ratio, 48 h
How it was run: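 S3 HeLa stable clones carrying a lamin A-EGFP splicing minigene plus DsRed2 were seeded at 600 cells/well in Opti-MEM with 2% FBS, pin-dosed and incubated 48 h at 37°C. Acumen cytometry (488 nm) gave the GFP/RFP total-intensity ratio.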

[1] = measured here: RFP viability control channel
[2] = measured here: GFP splicing reporter channel

Compound	AC50 [1]	AC50 [2]
C1=Nc2c(Nc3ccccc3)ncnc2Oc2ccccc21	25.1 µM [rising, single point]	
CCOc1ccc2nc(NC(=O)c3ccoc3C)sc2c1		2.82 µM [rising, full curve, poor fit]
c1ccc(CNc2ncnc3ccc(-c4cccnc4)cc23)cc1	15.8 µM [falling, partial curve]	15.8 µM [falling, partial curve]
O=C(CSc1nc(-c2ccccc2)c(-c2ccccc2)[nH]1)Nc1nccs1	0.00447 µM [falling, full curve, poor fit]	
CCOC(=O)C1=C(c2ccccc2)N(C)C(=O)NC1c1ccc(OC(F)F)c(OC)c1 (stereo unspecified)		12.6 µM [rising, single point]
Cc1ccc(NC(=O)CN(C)C(=S)NC2CC2)cc1		0.02 µM [falling, full curve, poor fit]
COc1cccc(CNC(=O)c2ccc(CNS(=O)(=O)c3ccc(C)cc3)cc2)c1		35.5 µM [falling, partial curve]
COCCCNC(=O)c1cc(Sc2ccc(F)cc2)nc2ccccc12	35.5 µM [rising, partial curve, poor fit]	
COc1cccc2cc(/C(=N/O)c3ccc(Br)cc3)oc12	35.5 µM [falling, partial curve]	35.5 µM [falling, partial curve]
Cc1ccc(S(=O)(=O)N2CCC(=O)N(CCOCc3ccc(Cl)cc3)CC2)cc1	11.2 µM [rising, partial curve]	
Cc1ccc(S(=O)(=O)NCCC(c2ccccc2)c2ccco2)cc1 (stereo unspecified)	12.6 µM [rising, partial curve]	
O=c1[nH]c(SCc2ccccc2[N+](=O)[O-])nc2nc[nH]c12	35.5 µM [falling, single point]	
O=C(O)c1nc2cc(Cl)c(Cl)cc2[nH]c1=O	25.1 µM [rising, partial curve]	20 µM [rising, partial curve]
Cc1ccc(CNC(=O)Cn2c(=O)ccc3cc(S(=O)(=O)N4CCC(C)CC4)ccc32)cc1	0.0282 µM [falling, full curve]	0.0398 µM [falling, full curve, poor fit]
CC1=C(C(=O)Nc2ccccc2)C(c2ccc(C)cc2)N=C(Nc2nc3ccccc3o2)N1 (stereo unspecified)	15.8 µM [falling, partial curve]	
CCC(CO)NCCNC(CC)CO (stereo unspecified)	0.282 µM [falling, full curve, poor fit]	
Cc1cc(N/N=C/c2cccc(Br)c2)nc2ccccc12	11.2 µM [rising, partial curve]	
Cc1ccc(NC(=O)C(C)OC(=O)c2ccc(NS(=O)(=O)c3ccc(F)c(F)c3)cc2)cc1 (stereo unspecified)	15.8 µM [rising, partial curve]	11.2 µM [rising, partial curve]
Cn1cc(CNCc2ccc(-n3cccn3)cc2)c(-c2ccccc2F)n1	0.00501 µM [falling, full curve, poor fit]	35.5 µM [falling, single point]
O=C(/C=C/c1ccco1)Nc1cccc(NC(=O)/C=C/c2ccco2)n1	35.5 µM [rising, single point]	
O=C(Nc1nccs1)c1csc2c1CCCC2	15.8 µM [rising, partial curve, poor fit]	
CCOC(=O)C1=C(c2ccccc2)N=c2s/c(=C\c3ccc(O)cc3)c(=O)n2C1c1cccs1 (stereo unspecified)		25.1 µM [falling, single point]
CCOC(=O)c1ccc(NC(=O)c2cccc(S(=O)(=O)N3CCOCC3)c2)cc1	17.8 µM [rising, single point]	14.1 µM [rising, partial curve]
COc1cc(/C=N/O)cc(Br)c1OCc1cccc(Cl)c1	22.4 µM [falling, single point]	28.2 µM [falling, single point]
Cc1ccc(S(=O)(=O)Nc2ccc(Cl)cc2)cc1NC(=O)c1cc2c(s1)CCCC2	20 µM [rising, partial curve, poor fit]	
Cc1cccc(-n2nnc(C(=O)NC3CCCc4ccccc43)c2N)c1 (stereo unspecified)	35.5 µM [falling, single point]	17.8 µM [falling, single point]
O=C(Cc1ccccc1)NNc1ccc2ccccc2c1	4.47 µM [rising, full curve, poor fit]	

Two records drawn at random from those above, as already listed:
Compound	AC50 [1]	AC50 [2]
COc1cccc(CNC(=O)c2ccc(CNS(=O)(=O)c3ccc(C)cc3)cc2)c1		35.5 µM [falling, partial curve]
O=C(O)c1nc2cc(Cl)c(Cl)cc2[nH]c1=O	25.1 µM [rising, partial curve]	20 µM [rising, partial curve]
